In patent publication US20230242871A1, “GENERATION OF PRIMORDIAL GERM CELLS AND METHODS OF USING THE SAME” (The Board of Trustees of the Leland Stanfor Junior …, priority 2020, published 2023):
“And” between values parts separate entries of the source, which are not always exact repeats. Equal entries are not always repeated.

Key:
Test in all cases: High-throughput cell-surface marker screening (LEGENDScreen), %PE+
Assay type in all cases: cell-based, human
Settings in all cases: percentage of cells bound to the PE-conjugated antibody (LEGENDScreen)
[1] = system: D3.5 SOX17-GFP+ PGCs
[2] = system: D3.5 SOX17-GFP- non-PGCs
[3] = system: undifferentiated hPSC (D0)

Substance | % PE+ in PGCs [1] [%] | % PE+ in non-PGCs [2] | % PE+ in H1 UD [3]
C3aR | 0 | 0.000202% | 0.22%
CD19 | 0 | 2.761E-05% | 0.062%
CD22 | 0 | 6.835E-05% | 0.094%
CD29 | 0.9912 | 0.9988% | 99.8%
CD31 | 0.02027 | 0.0002732% | 0.36%
CD35 | 0 | 0.0007484% | 3.22%
CD41 |  |  | 0.064%
CD44 | 0 | 0% | 79.7%
CD47 | 0.09756 | 0.2702% | 99.6%
CD48 | 0 | 0.0001518% | 2.17%
CD49b | 0 | 0.0004254% | 99.8%
CD49f | 0.9406 | 0.3889% | 99.6%
CD51 | 0.9743 | 0.9709% | 99.8%
CD61 | 0.9719 | 0.927% | 0.043%
CD63 | 0.007308 | 0.003238% | 99.5%
CD80 | 0 | 0.0005068% | 0.064%
CD81 |  |  | 99.5%
CD100 | 0.003862 | 0.001114% | 99.3%
CD107a | 0.7059 | 0.5091% | 99.7%
CD107b | 0.04037 | 0.07137% | 18.6%
CD109 | 0.1197 | 0.001618% | 44.2%
CD115 | 0 | 0.001517% | 0.66%
CD116 | 0.002924 | 0.03232% | 0.9%

Substance | % PE+ in PGCs [1] [%] | % PE+ in non-PGCs [2] | % PE+ in H1 UD [3]
CD135 | 0 | 0.0001421% | 0.26%
CD140a | 0.05744 | 0.3597% | 0.12%
CD142 | 0.2296 | 0.1744% | 99.6%
CD146 | 0.9288 | 0.6474% | 91.7%
CD154 | 0 | 0.0001621% | 0.16%
CD160 | 0.003072 | 0.005056% | 1.32%
CD169 | 0 | 0.000233% | 0.21%
CD195 | 0.01384 | 0.02834% | 0.041%
CD207 | 0 | 0.0002535% | 0.042%
CD217 | 0 | 0.002933% | 85.3%
CD268 | 0.00504 | 0.005966% | 11.6%
CD284 | 0 | 0.0006588% | 0.9%
CD360 | 0 | 0.001618% and 0.0001418% | 8.46% and 4.55%
CD370 | 0 | 0.0001925% | 0.084%
CXCR7 | 0.007053 | 0.01142% | 1.02%
DLL4 | 0 | 0% | 0.1%
Notch 1 | 0.003419 | 0.0004548% | 97.2%
Notch 2 | 0.006504 | 0.06203% | 88.5%
Notch 4 | 0 | 6.498E-05% | 0.51%
Siglec-8 | 0 | 4.641E-05% | 0.16%
Siglec-10 | 0 | 0.01975% | 0.35%
erbB3 | 0.5041 | 0.1277% | 99.3%
